Data as given in patent US20110129457A1.
Results are given in words; binding and its absence hold for the method and conditions named. Some binding calls cover weakened binding; strength is not graded here.

The chains behind the UniProt entries cited, without tags or fusion partners. Where a name states a change or a piece, a line headed by the entry shows the natural chain unless it says otherwise. A line that says so, or that is headed by a name, gives the form on record, which may keep a tag or linker. Residues count along the entry.
Shh-Flag (human Shh residues 25-197 with C-terminal Flag-Tag) (Q15465, form named): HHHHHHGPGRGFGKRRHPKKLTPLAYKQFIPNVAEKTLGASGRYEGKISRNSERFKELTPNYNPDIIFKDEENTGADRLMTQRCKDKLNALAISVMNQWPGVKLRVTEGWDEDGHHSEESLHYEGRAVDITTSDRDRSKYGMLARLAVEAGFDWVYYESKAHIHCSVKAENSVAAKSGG

How the values were obtained:
[1] = target: Shh-Flag (human Shh residues 25-197 with C-terminal Flag-Tag) (human) (UniProt Q15465); experiment: competition ELISA: Shh-Flag captured on anti-Flag M2; Hip-L2 peptide against 800 nM His-tagged Hhip protein (Hhip1β12 in paragraph 608, Hipβ1 in paragraph 609), detected with anti-His-HRP
[2] = target: Shh-Flag (human Shh residues 25-197 with C-terminal Flag-Tag) (human) (UniProt Q15465); experiment: competition ELISA on Shh-Flag

Binder | binding [1] | binding [2]
GDGMITLDDMEEMDGLSDFTG [Hip-L2 peptide (…) of the competition ELISA] | binds | –
GCQLTKQRLVDADGIINPCG (disulfide-containing cyclic peptide) [Ptch L2 peptide, disulfide-containing cyclic (…)] | – | binds
